Measured data: PubChem BioAssay AID504791 (Drosophila RNAi Screening Center, 2011)

- Test: 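Genes of the fly required for silencing by miRNA, siRNA or endo-siRNA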 (primary screen)
- Cell system: Drosophila S2-derived reporter cells
- Knock-down reagent: long dsRNA against Drosophila genes, about 150-250 ng dsRNA per well (siRNA assay); about 80-120 ng (miRNA assay)
- Duration: about 5 days (siRNA assay); about 4 days (miRNA assay)
- Treatment: copper sulfate induction of reporters: 25 µM (siRNA assay); 200 mM stated (miRNA assay), 1-2 days before reading
- Read-out: 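Dual luciferase assay: Renilla to firefly signal ratio in each well, scaled to the mean ratio of its plate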
- Units: stable assay Renilla, run 1 in luminescence; stable assay firefly, run 1 in luminescence
- Rule for the call: 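a well was a first-pass pick when its plate-scaled ratio rose above 1.5 (siRNA assay) or 1.6 (miRNA assay), or dropped below 0.6; a gene counted only if two separate dsRNAs agreed on retest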
The screen tested about 23,000 reagents; shown is a random part of those that have a named target and a result. In the full data, 199 (0.86%) are marked active. 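Plate-scaled ratios behind the calls are not deposited; printed light signals are raw; many rows marked increased or decreased are still called inactive.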 No sequences are given here. Not given: the direction of the score.

Depletion of CG4269 [DRSC04457] resulted in: stable assay Renilla, run 1 = 6072; stable assay firefly, run 1 = 3.88e5; inactive. CG15514 [DRSC15053] gave stable assay Renilla, run 1 = 8437; stable assay firefly, run 1 = 4.49e5; inactive. Depletion of NijC [DRSC14851] came out at: stable assay Renilla, run 1 = 6910; stable assay firefly, run 1 = 4.00e5; inactive. For CG18538 [DRSC06765] the deposit lists stable assay Renilla, run 1 = 8499; stable assay firefly, run 1 = 3.41e5; inactive. Against CG10459 [DRSC05991] the deposit lists stable assay Renilla, run 1 = 7006; stable assay firefly, run 1 = 4.66e5; inactive. After knock-down of CG10459 [DRSC22092], the record shows stable assay Renilla, run 1 = 11521; stable assay firefly, run 1 = 7.75e5; inactive.

With knock-down of CG32187 [DRSC10521], the screen gave stable assay Renilla, run 1 = 7168; stable assay firefly, run 1 = 3.55e5; inactive. Against sws [DRSC18843], the entry reads stable siRNA reporter change reporter ratio raised past the hit cutoff; stable assay Renilla, run 1 = 3611; stable assay firefly, run 1 = 3.52e5; inactive. TyrRS [DRSC10430] gave stable assay Renilla, run 1 = 8614; stable assay firefly, run 1 = 4.14e5; inactive. Against CG14478 [DRSC06450], the entry reads stable assay Renilla, run 1 = 7002; stable assay firefly, run 1 = 2.98e5; inactive. Depletion of TwdlH [DRSC14735] gave: stable siRNA reporter change reporter ratio lowered past the hit cutoff; stable assay Renilla, run 1 = 6726; stable assay firefly, run 1 = 7.63e5; inactive.

Already shown: an excerpt of the list.
NijC [DRSC14851] — stable assay Renilla, run 1: 6910; stable assay firefly, run 1: 4.00e5; activity call: inactive
CG18538 [DRSC06765] — stable assay Renilla, run 1: 8499; stable assay firefly, run 1: 3.41e5; activity call: inactive
CG10459 [DRSC05991] — stable assay Renilla, run 1: 7006; stable assay firefly, run 1: 4.66e5; activity call: inactive
CG10459 [DRSC22092] — stable assay Renilla, run 1: 11521; stable assay firefly, run 1: 7.75e5; activity call: inactive

More reagents:
toc [DRSC00169] gave stable assay Renilla, run 1 = 4607; stable assay firefly, run 1 = 3.93e5; inactive. toc [DRSC00171] scored stable assay Renilla, run 1 = 5866; stable assay firefly, run 1 = 3.69e5; inactive. toc [DRSC00842] showed stable assay Renilla, run 1 = 27831; stable assay firefly, run 1 = 1.16e5; inactive. With knock-down of haf [DRSC00381] the results were stable assay Renilla, run 1 = 7354; stable assay firefly, run 1 = 3.78e5; inactive. Pfas [DRSC03480] gave stable assay Renilla, run 1 = 20224; stable assay firefly, run 1 = 6.31e5; inactive. CG31959 (retired record) [DRSC22912] gave stable assay Renilla, run 1 = 2364; stable assay firefly, run 1 = 2.50e5; inactive.

Knock-down of nAChRalpha5 [DRSC01360] resulted in: stable assay Renilla, run 1 = 6322; stable assay firefly, run 1 = 5.22e5; inactive. Against nAChRalpha5 [DRSC01946] the deposit lists stable assay Renilla, run 1 = 8059; stable assay firefly, run 1 = 5.20e5; inactive. nAChRalpha5 [DRSC01947] showed stable assay Renilla, run 1 = 4035; stable assay firefly, run 1 = 3.51e5; inactive. For nAChRalpha5 [DRSC22785] the deposit lists stable assay Renilla, run 1 = 3263; stable assay firefly, run 1 = 4.55e5; inactive. Depletion of CG15712 [DRSC06583] resulted in: stable assay Renilla, run 1 = 6219; stable assay firefly, run 1 = 3.19e5; inactive. Osi22 [DRSC16442] showed stable assay Renilla, run 1 = 8733; stable assay firefly, run 1 = 4.66e5; inactive.

Depletion of CG15370 [DRSC18042] gave: stable assay Renilla, run 1 = 4311; stable assay firefly, run 1 = 3.23e5; inactive. Silencing of CG15370 [DRSC23277] came out at: stable assay Renilla, run 1 = 8138; stable assay firefly, run 1 = 4.83e5; inactive. Against PolH [DRSC11800], the values are stable assay Renilla, run 1 = 8799; stable assay firefly, run 1 = 3.86e5; inactive. After knock-down of Doa [DRSC13892], the record shows stable assay Renilla, run 1 = 5099; stable assay firefly, run 1 = 4.18e5; inactive. After knock-down of Doa [DRSC13893], the record shows stable assay Renilla, run 1 = 3871; stable assay firefly, run 1 = 3.58e5; inactive. For Doa [DRSC13895] the deposit lists stable assay Renilla, run 1 = 2851; stable assay firefly, run 1 = 3.00e5; inactive.

Doa [DRSC13896] showed stable assay Renilla, run 1 = 5298; stable assay firefly, run 1 = 3.35e5; inactive. Silencing of Doa [DRSC13897] resulted in: stable assay Renilla, run 1 = 4656; stable assay firefly, run 1 = 4.03e5; inactive. Doa [DRSC16650] gave stable assay Renilla, run 1 = 9318; stable assay firefly, run 1 = 4.78e5; inactive.
